The record followed here is PMC4671723.

Results are given in words; binding and its absence hold for the method and conditions named. In cells and extracts the contact can be indirect. A yes stands for co-enrichment or nearness to the bait. Other partners may have been found. For some assays here: No binding means not detected with the bait. Sequences can lack the tags named with a protein.

Test in all cases: affinity purification with mass spectrometry; GFP-tagged bait immunoprecipitated from extracts of transgenic Arabidopsis plants (pALP1::ALP1-GFP, 35S::ALP1-GFP, 35S::GFP-CLF, 35S::GFP control); co-purifying proteins identified by mass spectrometry (IP-MS); three independent replicates
Experiment [1] has as its target T1, GFP-CLF (CURLY LEAF fused to GFP) (Arabidopsis), P93831.
T1 chain: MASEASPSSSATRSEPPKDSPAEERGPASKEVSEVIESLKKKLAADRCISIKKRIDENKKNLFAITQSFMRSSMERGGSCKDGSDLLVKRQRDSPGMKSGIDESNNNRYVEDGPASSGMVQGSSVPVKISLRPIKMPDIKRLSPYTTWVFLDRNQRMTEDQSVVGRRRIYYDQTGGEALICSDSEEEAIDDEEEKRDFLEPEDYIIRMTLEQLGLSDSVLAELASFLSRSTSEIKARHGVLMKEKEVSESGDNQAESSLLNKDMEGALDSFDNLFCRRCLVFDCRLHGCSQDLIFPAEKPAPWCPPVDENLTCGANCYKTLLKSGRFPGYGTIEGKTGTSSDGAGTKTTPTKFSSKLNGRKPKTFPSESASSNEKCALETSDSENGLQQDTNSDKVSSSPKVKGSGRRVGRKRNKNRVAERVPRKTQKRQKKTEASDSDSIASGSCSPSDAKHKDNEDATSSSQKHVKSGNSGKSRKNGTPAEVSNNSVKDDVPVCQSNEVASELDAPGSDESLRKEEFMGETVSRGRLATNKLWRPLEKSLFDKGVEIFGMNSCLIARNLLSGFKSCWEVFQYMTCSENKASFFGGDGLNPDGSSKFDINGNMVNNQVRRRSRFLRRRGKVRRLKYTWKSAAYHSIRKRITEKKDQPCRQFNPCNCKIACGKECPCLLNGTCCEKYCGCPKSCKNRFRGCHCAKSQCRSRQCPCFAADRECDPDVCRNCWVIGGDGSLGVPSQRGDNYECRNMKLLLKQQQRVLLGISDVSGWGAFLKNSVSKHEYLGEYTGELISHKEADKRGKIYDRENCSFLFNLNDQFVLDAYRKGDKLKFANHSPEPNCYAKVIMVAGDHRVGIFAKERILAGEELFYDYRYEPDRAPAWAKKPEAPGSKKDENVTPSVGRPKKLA
To be noted: remark: other sources report otherwise.

The target of experiment [2] is T2, ALP1-GFP (ANTAGONIST OF LIKE HETEROCHROMATIN PROTEIN1 fused in frame to GFP) (Arabidopsis), Q94K49.
T2 chain: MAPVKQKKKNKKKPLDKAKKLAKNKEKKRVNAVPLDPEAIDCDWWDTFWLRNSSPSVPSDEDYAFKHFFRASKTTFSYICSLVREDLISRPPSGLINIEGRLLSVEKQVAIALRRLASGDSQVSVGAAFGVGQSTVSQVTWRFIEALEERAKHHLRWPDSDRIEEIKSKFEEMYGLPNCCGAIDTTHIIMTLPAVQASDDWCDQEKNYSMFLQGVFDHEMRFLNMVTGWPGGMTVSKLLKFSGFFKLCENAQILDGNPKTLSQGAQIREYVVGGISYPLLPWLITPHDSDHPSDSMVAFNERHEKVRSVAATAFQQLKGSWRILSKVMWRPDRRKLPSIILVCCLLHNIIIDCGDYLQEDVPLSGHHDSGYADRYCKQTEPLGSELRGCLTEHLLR
The note with it: remark: other sources report otherwise.

For experiment [3], the target named is T3, ALP1-GFP (ANTAGONIST OF LIKE HETEROCHROMATIN PROTEIN1 fused in frame to GFP) (Arabidopsis) (UniProt Q94K49).
T3 sequence: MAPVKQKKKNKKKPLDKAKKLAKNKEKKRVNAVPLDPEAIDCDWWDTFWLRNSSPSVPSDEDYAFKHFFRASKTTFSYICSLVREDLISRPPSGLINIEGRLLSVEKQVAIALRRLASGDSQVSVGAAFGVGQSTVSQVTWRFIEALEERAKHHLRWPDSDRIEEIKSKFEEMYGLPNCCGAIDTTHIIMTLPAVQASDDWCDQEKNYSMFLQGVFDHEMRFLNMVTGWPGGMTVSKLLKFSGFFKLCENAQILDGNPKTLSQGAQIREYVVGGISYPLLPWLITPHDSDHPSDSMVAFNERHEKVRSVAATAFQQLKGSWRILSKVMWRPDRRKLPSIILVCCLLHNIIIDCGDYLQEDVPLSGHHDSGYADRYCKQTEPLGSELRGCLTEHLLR

Experiment [4] concerns the target T4, GFP-CLF (CURLY LEAF fused to GFP) (Arabidopsis) (UniProt P93831).
T4 sequence: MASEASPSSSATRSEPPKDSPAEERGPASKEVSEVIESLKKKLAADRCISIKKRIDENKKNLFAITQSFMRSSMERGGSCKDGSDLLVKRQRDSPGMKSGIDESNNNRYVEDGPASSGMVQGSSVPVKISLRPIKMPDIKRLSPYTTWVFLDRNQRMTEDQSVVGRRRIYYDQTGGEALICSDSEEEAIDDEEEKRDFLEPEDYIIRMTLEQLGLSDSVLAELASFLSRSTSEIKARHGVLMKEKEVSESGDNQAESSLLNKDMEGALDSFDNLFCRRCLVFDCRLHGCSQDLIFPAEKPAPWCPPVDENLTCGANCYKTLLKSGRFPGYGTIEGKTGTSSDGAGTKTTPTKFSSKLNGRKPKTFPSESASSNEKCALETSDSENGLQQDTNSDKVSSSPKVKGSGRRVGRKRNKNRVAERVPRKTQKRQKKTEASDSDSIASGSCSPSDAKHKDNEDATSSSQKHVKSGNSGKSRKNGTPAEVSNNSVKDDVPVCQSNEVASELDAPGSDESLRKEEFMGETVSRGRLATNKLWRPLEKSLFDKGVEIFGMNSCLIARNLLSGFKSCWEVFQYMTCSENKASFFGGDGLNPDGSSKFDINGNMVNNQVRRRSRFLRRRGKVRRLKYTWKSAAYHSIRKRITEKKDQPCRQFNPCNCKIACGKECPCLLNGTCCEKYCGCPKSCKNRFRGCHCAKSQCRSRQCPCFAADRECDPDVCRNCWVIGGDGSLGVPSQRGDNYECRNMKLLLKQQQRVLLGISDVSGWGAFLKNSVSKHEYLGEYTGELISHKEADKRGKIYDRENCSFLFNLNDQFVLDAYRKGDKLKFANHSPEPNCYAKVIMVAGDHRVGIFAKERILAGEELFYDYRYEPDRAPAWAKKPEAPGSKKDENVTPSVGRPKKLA

B1: ANTAGONIST OF LIKE HETEROCHROMATIN PROTEIN1 (ALP1), Q94K49 1-396 (protein)
chain: MAPVKQKKKNKKKPLDKAKKLAKNKEKKRVNAVPLDPEAIDCDWWDTFWLRNSSPSVPSDEDYAFKHFFRASKTTFSYICSLVREDLISRPPSGLINIEGRLLSVEKQVAIALRRLASGDSQVSVGAAFGVGQSTVSQVTWRFIEALEERAKHHLRWPDSDRIEEIKSKFEEMYGLPNCCGAIDTTHIIMTLPAVQASDDWCDQEKNYSMFLQGVFDHEMRFLNMVTGWPGGMTVSKLLKFSGFFKLCENAQILDGNPKTLSQGAQIREYVVGGISYPLLPWLITPHDSDHPSDSMVAFNERHEKVRSVAATAFQQLKGSWRILSKVMWRPDRRKLPSIILVCCLLHNIIIDCGDYLQEDVPLSGHHDSGYADRYCKQTEPLGSELRGCLTEHLLR
On to B1, for which, in experiment [1], the binding entry is “binds”.

B2: SWINGER (SWN), Q9ZSM8 1-856 (protein)
chain: MVTDDSNSSGRIKSHVDDDDDGEEEEDRLEGLENRLSELKRKIQGERVRSIKEKFEANRKKVDAHVSPFSSAASSRATAEDNGNSNMLSSRMRMPLCKLNGFSHGVGDRDYVPTKDVISASVKLPIAERIPPYTTWIFLDRNQRMAEDQSVVGRRQIYYEQHGGETLICSDSEEEPEPEEEKREFSEGEDSIIWLIGQEYGMGEEVQDALCQLLSVDASDILERYNELKLKDKQNTEEFSNSGFKLGISLEKGLGAALDSFDNLFCRRCLVFDCRLHGCSQPLISASEKQPYWSDYEGDRKPCSKHCYLQLKAVREVPETCSNFASKAEEKASEEECSKAVSSDVPHAAASGVSLQVEKTDIGIKNVDSSSGVEQEHGIRGKREVPILKDSNDLPNLSNKKQKTAASDTKMSFVNSVPSLDQALDSTKGDQGGTTDNKVNRDSEADAKEVGEPIPDNSVHDGGSSICQPHHGSGNGAIIIAEMSETSRPSTEWNPIEKDLYLKGVEIFGRNSCLIARNLLSGLKTCLDVSNYMRENEVSVFRRSSTPNLLLDDGRTDPGNDNDEVPPRTRLFRRKGKTRKLKYSTKSAGHPSVWKRIAGGKNQSCKQYTPCGCLSMCGKDCPCLTNETCCEKYCGCSKSCKNRFRGCHCAKSQCRSRQCPCFAAGRECDPDVCRNCWVSCGDGSLGEAPRRGEGQCGNMRLLLRQQQRILLGKSDVAGWGAFLKNSVSKNEYLGEYTGELISHHEADKRGKIYDRANSSFLFDLNDQYVLDAQRKGDKLKFANHSAKPNCYAKVMFVAGDHRVGIFANERIEASEELFYDYRYGPDQAPVWARKPEGSKKDDSAITHRRARKHQSH
Turning to B2, the results for the binding entry in experiment [1] and in experiment [2] were “no binding” and “binds”, respectively.

B3: EMBRYONIC FLOWER1 (EMF1) (protein, UniProt Q9LYD9 1-1096)
chain: MGSSIKINSISIDLAGAANEIDMVKCDHFSMRGFVAETRERDLRKCWPFSEESVSLVDQQSYTLPTLSVPKFRWWHCMSCIKDIDAHGPKDCGLHSNSKAIGNSSVIESKSKFNSLTIIDHEKEKKTDIADNAIEEKVGVNCENDDQTATTFLKKARGRPMGASNVRSKSRKLVSPEQVGNNRSKEKLNKPSMDISSWKEKQNVDQAVTTFGSSEIAGVVEDTPPKATKNHKGIRGLMECDNGSSESINLAMSGLQRRKSRKVRLLSELLGNTKTSGGSNIRKEESALKKESVRGRKRKLLPENNYVSRILSTMGATSENASKSCDSDQGNSESTDSGFDRTPFKGKQRNRRFQVVDEFVPSLPCETSQEGIKEHDADPSKRSTPAHSLFTGNDSVPCPPGTQRTERKLSLPKKKTKKPVIDNGKSTVISFSNGIDGSQVNSHTGPSMNTVSQTRDLLNGKRVGGLFDNRLASDGYFRKYLSQVNDKPITSLHLQDNDYVRSRDAEPNCLRDFSSSSKSSSGGWLRTGVDIVDFRNNNHNTNRSSFSNLKLRYPPSSTEVADLSRVLQKDASGADRKGKTVMVQEHHGAPRSQSHDRKETTTEEQNNDDIPMEIVELMAKNQYERCLPDKEEDVSNKQPSQETAHKSKNALLIDLNETYDNGISLEDNNTSRPPKPCSSNARREEHFPMGRQQNSHDFFPISQPYVPSPFGIFPPTQENRASSIRFSGHNCQWLGNLPTVGNQNPSPSSFRVLRACDTCQSVPNQYREASHPIWPSSMIPPQSQYKPVSLNINQSTNPGTLSQASNNENTWNLNFVAANGKQKCGPNPEFSFGCKHAAGVSSSSSRPIDNFSSESSIPALHLLSLLDPRLRSTTPADQHGNTKFTKRHFPPANQSKEFIELQTGDSSKSAYSTKQIPFDLYSKRFTQEPSRKSFPITPPIGTSSLSFQNASWSPHHQEKKTKRKDTFAPVYNTHEKPVFASSNDQAKFQLLGASNSMMLPLKFHMTDKEKKQKRKAESCNNNASAGPVKNSSGPIVCSVNRNPADFTIPEPGNVYMLTGEHLKVRKRTTFKKKPAVCKQDAMKQTKKPVCPPTQNA
Regarding B3, the binding result in experiment [3] is reported as “no binding”; in experiment [4] it was “binds”.
